In PMC2994726 (PLoS ONE, 2010):
These are yes or no findings as the source states them, for the method shown. In cells and extracts the contact can be indirect. Some binding calls cover weakened binding; strength is not graded here.

The chains behind the UniProt entries cited, without tags or fusion partners. Where a name states a change or a piece, a line headed by the entry shows the natural chain unless it says otherwise.
UniProt P25095: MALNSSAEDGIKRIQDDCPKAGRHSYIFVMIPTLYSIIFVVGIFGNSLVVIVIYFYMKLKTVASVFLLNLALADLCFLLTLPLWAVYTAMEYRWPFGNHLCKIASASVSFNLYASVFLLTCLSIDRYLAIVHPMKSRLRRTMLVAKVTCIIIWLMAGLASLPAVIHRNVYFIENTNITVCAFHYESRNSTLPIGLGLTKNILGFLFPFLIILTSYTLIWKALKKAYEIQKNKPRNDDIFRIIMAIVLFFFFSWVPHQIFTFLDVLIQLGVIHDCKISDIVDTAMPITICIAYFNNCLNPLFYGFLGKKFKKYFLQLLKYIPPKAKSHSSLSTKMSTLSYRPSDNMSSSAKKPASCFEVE

Legend:
[1] = target: Luc-tagged rat AT1a receptor D74N, full length (rat) (UniProt P25095); assay: FRET or BRET; BRET1 in live HEK293 cells co-transfected with Luc-tagged AT1R and YFP-β-arrestin2, with or without overexpressed Gαq; dose-response to Ang II
[2] = target: Luc-tagged rat AT1a receptor Y302F, full length (rat) (UniProt P25095); assay: as above

With “YFP-β-arrestin2 (from UniProt P32121 1-409)” the binding [1] was “binds” and the binding [2] was “binds”.
